PubChem BioAssay AID1159584, Peter MacCallum Cancer Centre, 2016

Assay: 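Knock-downs that harm CDH1-null cells more than parental MCF10A cells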 (primary screen)
Cell system: human MCF10A breast epithelial cells, parental and CDH1-null
Knock-down reagent: siRNA against human genes
Measured: 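ATP luminescence (CellTiter-Glo) viability per line relative to mean mock wells over all plates, and the ratio of CDH1-null to parental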
Reading the numbers: CDH1-null / parental viability ratio: higher = CDH1-null cells survive relatively better than parental; CDH1-null viability vs mock: higher = more viable CDH1-null cells; parental viability vs mock: higher = more viable parental cells
Shown is one part, drawn at random, of about 18,000 reagents tested. Not stated in the record: the amount of reagent, the time to read-out.

Target gene	CDH1-null / parental viability ratio	CDH1-null viability vs mock (fraction of mock)	parental viability vs mock (fraction of mock)
ST3GAL3 (ST3 beta-galactoside alpha-2,3-sialyltransferase 3)	0.95	0.53	0.56
TMEM74 (transmembrane protein 74)	1	0.77	0.77
ZNF319 (zinc finger protein 319)	1.02	0.57	0.56
OR51F2 (olfactory receptor family 51 subfamily F member 2)	0.85	0.64	0.75
TAF4B (TATA-box binding protein associated factor 4b)	0.98	0.62	0.63
PPIH (peptidylprolyl isomerase H)	1.02	1	0.98
XPA (XPA, DNA damage recognition and repair factor)	0.94	0.77	0.82
CD84 (CD84 molecule)	1.17	0.88	0.75
HMCN2 (hemicentin 2)	1	0.78	0.78
PRSS45P (serine protease 45, pseudogene)	0.82	0.84	1.03
GARNL3 (GTPase activating Rap/RanGAP domain like 3)	1.05	0.8	0.76
ELMOD3 (ELMO domain containing 3)	1.03	0.95	0.92
JAKMIP1 (janus kinase and microtubule interacting protein 1)	0.93	0.83	0.89
MRTFB (myocardin related transcription factor B)	1.08	1.06	0.98
ADCY3 (adenylate cyclase 3)	1.11	0.97	0.87
RTP2 (receptor transporter protein 2)	0.92	0.68	0.74
CDH20 (cadherin 20)	1.06	1.02	0.96
SMYD5 (SMYD family member 5)	1.04	1.12	1.08
ETFRF1 (electron transfer flavoprotein regulatory factor 1)	1.12	0.92	0.82
HRC (histidine rich calcium binding protein)	0.95	0.91	0.96
TRIM63 (tripartite motif containing 63)	1	0.9	0.9
CYP17A1 (cytochrome P450 family 17 subfamily A member 1)	1.08	0.7	0.65
FNDC1 (fibronectin type III domain containing 1)	0.7	0.42	0.6
SREK1 (splicing regulatory glutamic acid and lysine rich protein 1)	1.19	1.05	0.88
GLYCTK (glycerate kinase)	1.05	0.81	0.77
C1QL2 (complement C1q like 2)	1.02	0.96	0.94
SH3RF1 (SH3 domain containing ring finger 1)	0.91	0.82	0.9

Continued, starting with the last 2 of the part before.
Target gene	CDH1-null / parental viability ratio	CDH1-null viability vs mock (fraction of mock)	parental viability vs mock (fraction of mock)
C1QL2 (complement C1q like 2)	1.02	0.96	0.94
SH3RF1 (SH3 domain containing ring finger 1)	0.91	0.82	0.9
API5 (apoptosis inhibitor 5)	1.1	1.12	1.02
TUBA1C (tubulin alpha 1c)	0.64	0.5	0.78
GGNBP2 (gametogenetin binding protein 2)	1.07	0.44	0.41
KCNS3	1.27	0.99	0.78
MRGPRG (MAS related GPR family member G)	0.83	0.78	0.94
GPR141 (G protein-coupled receptor 141)	0.78	0.73	0.94
ZFP2 (ZFP2 zinc finger protein)	0.81	0.76	0.94
TPRN (taperin)	0.96	0.81	0.84
OR5AU1 (olfactory receptor family 5 subfamily AU member 1)	0.84	0.84	1
NDUFV3 (NADH:ubiquinone oxidoreductase subunit V3)	1.11	1.2	1.08
USP49 (ubiquitin specific peptidase 49)	0.98	0.5	0.51
HTRA1 (HtrA serine peptidase 1)	1.1	0.43	0.39
TLCD1 (TLC domain containing 1)	0.69	0.58	0.84
EGFL8 (EGF like domain multiple 8)	0.8	0.35	0.44
DDR2 (discoidin domain receptor tyrosine kinase 2)	0.89	0.82	0.92
TRPC4AP	1	0.82	0.82
PNRC1 (proline rich nuclear receptor coactivator 1)	1.05	0.68	0.65
PRPF40B (pre-mRNA processing factor 40B)	0.81	0.66	0.81
SIPA1L3 (signal induced proliferation associated 1 like 3)	0.71	0.4	0.56
